Source: PubChem BioAssay AID1259308 (NCATS, 2017)

Aim: 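Candidate targets for better recombinant protein yield in mammalian cells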 (primary screen)
Cells: human HEK293 embryonic kidney cells stably expressing firefly luciferase (HEK-CMV-Luc2-Hygro)
Reagent: single siRNA against human genes, 0.8 pmol siRNA per well
Time to read-out: 72 h
Measured: 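Reporter luminescence and viable-cell signal on separate replicate plates, given as percent of non-targeting control and median/MAD z-scores, plus per-cell luciferase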
Reading the numbers: total luciferase, z-score and total luciferase, % of control: higher = more reporter protein produced; luciferase per cell, z-score: higher = more reporter output per viable cell; viable cells, % of control: higher = more viable cells
Call rule: 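An siRNA counts as active if its total luciferase robust z-score exceeds 3; genes with two or more such siRNAs out of three were retested with fresh siRNAs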
Meaning of the calls: active = raised luciferase; inactive = no rise
The deposit covers about 59,000 reagents; this is a random part of them. About 1,510 of them (2.6%) count as active. 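Calls use total luciferase alone and ignore viability, so some active siRNAs may act by altering cell number.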 Unmarked entries are inactive. Reagents against one gene are numbered here.

| Gene | reagent no. | total luciferase, z-score | total luciferase, % of control | luciferase per cell, z-score | viable cells, % of control |
| --- | --- | --- | --- | --- | --- |
| STAMBPL1 (GeneID 57559) | 1 | -0.519 | 71.6 | -0.4 | 88.9 |
| STAMBPL1 (GeneID 57559) | 2 | 1.28 | 107 | 1.36 | 83.9 |
| STAMBPL1 (GeneID 57559) | 3 | 0.0418 | 82.7 | 0.274 | 86 |
| DUSP18 (GeneID 150290) | 1 | 0.609 | 94 | 1.12 | 78.1 |
| DUSP18 (GeneID 150290) | 2 | 2.54 | 132 | 1.52 | 99.2 |
| DUSP18 (GeneID 150290) | 3 | -1.32 | 55.6 | -0.13 | 64.3 |
| CR1L (GeneID 1379) | 1 | 2.76 | 137 | 2.6 | 77.2 |
| CR1L (GeneID 1379) | 2 | 0.439 | 90.6 | -0.227 | 107 |
| CR1L (GeneID 1379) | 3 | 0.243 | 86.7 | -0.56 | 112 |
| OR5AN1 (GeneID 390195) | 1 | -0.0819 | 80.3 | 0.224 | 84.6 |
| OR5AN1 (GeneID 390195) | 2 | -0.453 | 72.9 | -0.166 | 85.1 |
| OR5AN1 (GeneID 390195) | 3 | -2.55 | 31.1 | -2.57 | 68.5 |
| AK7 (GeneID 122481) | 1 | -0.0659 | 80.6 | 0.104 | 87.6 |
| AK7 (GeneID 122481) | 2 | 0.139 | 84.6 | -0.106 | 97.3 |
| AK7 (GeneID 122481) | 3 | 0.792 | 97.6 | 1.04 | 83 |
| CKMT1B (GeneID 1159) | 1 | -0.594 | 70.1 | -0.837 | 97.6 |
| CKMT1B (GeneID 1159) | 2 | -0.127 | 79.4 | -0.148 | 92.2 |
| CKMT1B (GeneID 1159) | 3 | 0.436 | 90.6 | 0.0367 | 100 |
| NCOA5 (GeneID 57727) | 1 | 0.637 | 94.6 | 0.118 | 102 |
| NCOA5 (GeneID 57727) | 2 | 0.199 | 85.9 | 0.124 | 92.8 |
| NCOA5 (GeneID 57727) | 3 | 1.08 | 103 | 0.583 | 99.1 |
| CAPN13 (GeneID 92291) | 1 | -0.44 | 73.1 | -0.382 | 90.4 |
| CAPN13 (GeneID 92291) | 2 | 0.491 | 91.6 | 0.0236 | 102 |
| CAPN13 (GeneID 92291) | 3 | 0.0387 | 82.7 | -0.403 | 103 |

Looked up above.
Entry of AK7 (GeneID 122481) #3 under “total luciferase, % of control”: 97.6
DUSP18 (GeneID 150290) #1, total luciferase, z-score → 0.609
CKMT1B (GeneID 1159) #3, total luciferase, % of control = 90.6

Further results follow.
| Gene | reagent no. | total luciferase, z-score | total luciferase, % of control | luciferase per cell, z-score | viable cells, % of control |
| --- | --- | --- | --- | --- | --- |
| UBE2R2 (GeneID 54926) | 1 | 2.13 | 124 | 1.19 | 101 |
| UBE2R2 (GeneID 54926) | 2 | 1.2 | 106 | 0.833 | 94.9 |
| UBE2R2 (GeneID 54926) | 3 | -0.671 | 68.5 | -1.07 | 102 |
| MZB1 (GeneID 51237) | 1 | 2.58 | 133 | 1.32 | 105 |
| MZB1 (GeneID 51237) | 2 | -0.486 | 72.2 | 0.62 | 68.5 |
| MZB1 (GeneID 51237) | 3 | -0.0912 | 80.1 | -0.525 | 103 |
| CLEC4M (GeneID 10332) | 1 | 2.49 | 131 | 2.68 | 72.6 |
| CLEC4M (GeneID 10332) | 2 | 1.34 | 109 | 2.24 | 67.2 |
| CLEC4M (GeneID 10332) | 3 | 1.98 | 121 | 1.2 | 98.9 |
| SLC13A2 (GeneID 9058) | 1 | 0.723 | 96.3 | 0.0585 | 106 |
| SLC13A2 (GeneID 9058) | 2 | 0.0302 | 82.5 | -0.374 | 102 |
| SLC13A2 (GeneID 9058) | 3 | -0.11 | 79.7 | 1.63 | 57.9 |
| SCN10A (GeneID 6336) | 1 | -1.95 | 43 | -2.17 | 85.1 |
| SCN10A (GeneID 6336) | 2 | -0.0112 | 81.7 | 0.118 | 88.5 |
| SCN10A (GeneID 6336) | 3 | 0.214 | 86.1 | -0.0408 | 97.3 |
| APOA2 (GeneID 336) | 1 | -1.2 | 58 | -0.768 | 79.4 |
| APOA2 (GeneID 336) | 2 | -0.448 | 73 | -0.544 | 94.1 |
| APOA2 (GeneID 336) | 3 | 0.324 | 88.3 | 0.0576 | 97.2 |
| ZBTB4 (GeneID 57659) | 1 | 1.23 | 106 | 0.912 | 93.4 |
| ZBTB4 (GeneID 57659) | 2 | 0.35 | 88.8 | 0.0367 | 98.3 |
| ZBTB4 (GeneID 57659) | 3 | -0.237 | 77.2 | -0.441 | 96.9 |
| ZSCAN21 (GeneID 7589) | 1 | -0.841 | 65.2 | -0.7 | 87.5 |
| ZSCAN21 (GeneID 7589) | 2 | -0.3 | 75.9 | -0.381 | 93.8 |
| ZSCAN21 (GeneID 7589) | 3 | 0.747 | 96.7 | 0.442 | 96.2 |
| TNFRSF4 (GeneID 7293) | 1 | -0.513 | 71.7 | -0.163 | 83.6 |
| TNFRSF4 (GeneID 7293) | 2 | -0.68 | 68.4 | -1.06 | 101 |
| TNFRSF4 (GeneID 7293) | 3 | 1.66 | 115 | 2.22 | 71.5 |
| TOX3 (GeneID 27324) | 1 | -1.38 | 54.5 | -0.874 | 76.7 |
| TOX3 (GeneID 27324) | 2 | -0.822 | 65.5 | -1.43 | 107 |
| TOX3 (GeneID 27324) | 3 | 0.918 | 100 | 1.12 | 83.4 |
| HSF1 (GeneID 3297) | 1 | 2.89 | 139 | 1.89 | 94.6 |
| HSF1 (GeneID 3297) | 2 | -0.634 | 69.3 | -1.09 | 103 |
| HSF1 (GeneID 3297) | 3 | 0.854 | 98.9 | 0.973 | 85.5 |
